# Melanoma cell counts after drug treatment

Values as published with doi:10.1371/journal.pone.0140310, rounded.

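Human melanoma cells were exposed to two drugs together for 72 h in 1,536-well plates and read by automated microscopy after fixing and staining. The read-out is cell count (nuclei) in % of the DMSO control; lower values mean stronger growth inhibition or killing. Concentrations were fixed for each drug; these are the higher of two levels. No replicate spread is given; individual values may be noisy.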 This is part of the screen, not chosen by result.

Drugs:
Src-I1 (10 µM): COc1cc2ncnc(Nc3ccc(Oc4ccccc4)cc3)c2cc1OC
docetaxel (0.0005 µM): CC(=O)O[C@@]12CO[C@@H]1C[C@H](O)[C@@]1(C)C(=O)[C@H](O)C3=C(C)[C@@H](OC(=O)[C@H](O)[C@@H](NC(=O)OC(C)(C)C)c4ccccc4)C[C@@](O)([C@@H](OC(=O)c4ccccc4)[C@H]21)C3(C)C
lestaurtinib (0.02 µM): C[C@]12O[C@H](C[C@]1(O)CO)n1c3ccccc3c3c4c(c5c6ccccc6n2c5c31)CNC4=O
nutlin-3 (0.5 µM): COc1ccc(C2=N[C@@H](c3ccc(Cl)cc3)[C@@H](c3ccc(Cl)cc3)N2C(=O)N2CCNC(=O)C2)c(OC(C)C)c1
vismodegib (5 µM): CS(=O)(=O)c1ccc(C(=O)Nc2ccc(Cl)c(-c3ccccn3)c2)c(Cl)c1
BMS-536924 (1 µM): Cc1cc(N2CCOCC2)cc2[nH]c(-c3c(NC[C@@H](O)c4cccc(Cl)c4)cc[nH]c3=O)nc12
vatalanib (10 µM): Clc1ccc(Nc2nnc(Cc3ccncc3)c3ccccc23)cc1
PF-04217903 (5 µM): OCCn1cc(-c2cnc3nnn(Cc4ccc5ncccc5c4)c3n2)cn1
AZD7762 (0.1 µM): NC(=O)Nc1cc(-c2cccc(F)c2)sc1C(=O)N[C@H]1CCCNC1

| Drugs | C32 | COLO 829 | COLO 800 | COLO 792 | WM451Lu | WM3619 |
|---|---|---|---|---|---|---|
| vismodegib + AZD7762 | 66.6 | 100 | 63.4 | 45.5 | 85.1 | 37.0 |
| vatalanib + vismodegib | 83.5 | 52.9 | 69.2 | 57.9 | 69.8 | 45.6 |
| nutlin-3 + vatalanib | 87.4 | 45.6 | 80.1 | 54.1 | 83.1 | 69.1 |
| AZD7762 + PF-04217903 | 62.2 | 69.9 | 69.2 | 35.8 | 84.6 | 26.4 |
| nutlin-3 + PF-04217903 | 78.8 | 79.8 | 101 | 79.9 | 103 | 71.7 |
| BMS-536924 + vismodegib | 105 | 108 | 30.1 | 59.6 | 106 | 93.1 |
| lestaurtinib + docetaxel | 75.8 | 38.1 | 29.4 | 14.8 | 29.2 | 54.3 |
| Src-I1 + vismodegib | 99.5 | 123 | 132 | 84.3 | 100 | 70.0 |
| AZD7762 + nutlin-3 | 57.4 | 72.1 | 47.0 | 45.5 | 65.2 | 16.8 |
| docetaxel + nutlin-3 | 58.7 | 40.6 | 19.4 | 20.8 | 27.9 | 42.2 |
| vismodegib + PF-04217903 | 109 | 90.0 | 66.8 | 92.1 | 109 | 112 |
| PF-04217903 + lestaurtinib | 98.0 | 90.5 | 66.3 | 78.4 | 93.5 | 95.4 |
| AZD7762 + lestaurtinib | 72.1 | 80.6 | 50.0 | 43.5 | 91.6 | 29.1 |
| AZD7762 + vatalanib | 53.2 | 52.1 | 46.1 | 32.5 | 75.4 | 25.1 |
| Src-I1 + PF-04217903 | 130 | 111 | 115 | 66.9 | 81.3 | 62.6 |
| vatalanib + BMS-536924 | 90.5 | 90.3 | 37.5 | 46.1 | 99.4 | 72.4 |
| lestaurtinib + nutlin-3 | 71.4 | 86.1 | 70.2 | 66.5 | 89.4 | 79.7 |
| PF-04217903 + BMS-536924 | 75.9 | 103 | 35.8 | 68.7 | 75.7 | 66.6 |
| nutlin-3 + Src-I1 | 94.8 | 70.0 | 104 | 70.5 | 75.4 | 61.8 |
| vatalanib + PF-04217903 | 96.0 | 73.5 | 40.7 | 70.1 | 76.8 | 29.9 |
| vatalanib + docetaxel | 85.7 | 23.8 | 12.4 | 31.2 | 38.8 | 50.9 |
| AZD7762 + Src-I1 | 58.3 | 87.1 | 72.8 | 43.5 | 61.4 | 66.0 |
| BMS-536924 + Src-I1 | 98.8 | 111 | 40.2 | 40.9 | 58.8 | 72.3 |
| BMS-536924 + AZD7762 | 56.8 | 65.0 | 17.4 | 16.1 | 64.7 | 22.8 |
| nutlin-3 + BMS-536924 | 78.3 | 102 | 45.6 | 70.4 | 99.1 | 86.4 |
| docetaxel + AZD7762 | 50.9 | 46.2 | 11.2 | 15.4 | 32.8 | 17.9 |
| Src-I1 + vatalanib | 83.8 | 88.1 | 59.6 | 39.2 | 65.3 | 38.6 |
| Src-I1 + docetaxel | 61.0 | 55.0 | 27.3 | 21.8 | 36.8 | 62.9 |
| lestaurtinib + BMS-536924 | 80.1 | 99.9 | 32.4 | 27.1 | 90.1 | 96.1 |
| PF-04217903 + docetaxel | 80.0 | 28.8 | 29.2 | 18.6 | 39.4 | 69.3 |
| lestaurtinib + vismodegib | 90.1 | 94.8 | 58.7 | 65.8 | 104 | 92.7 |
| Src-I1 + lestaurtinib | 80.6 | 91.2 | 120 | 43.9 | 65.5 | 66.4 |
| docetaxel + vismodegib | 89.1 | 41.3 | 17.0 | 18.5 | 42.1 | 55.9 |
| vismodegib + nutlin-3 | 82.9 | 68.6 | 68.8 | 117 | 119 | 100 |
| vatalanib + lestaurtinib | 105 | 75.8 | 115 | 53.2 | 79.5 | 62.7 |
| BMS-536924 + docetaxel | 31.4 | 45.0 | 29.0 | 20.5 | 39.8 | 55.2 |

The first 3 entries again:

{"drugs": "vismodegib + AZD7762", "C32": 66.6, "COLO 829": 100, "COLO 800": 63.4, "COLO 792": 45.5, "WM451Lu": 85.1, "WM3619": 37.0}
{"drugs": "vatalanib + vismodegib", "C32": 83.5, "COLO 829": 52.9, "COLO 800": 69.2, "COLO 792": 57.9, "WM451Lu": 69.8, "WM3619": 45.6}
{"drugs": "nutlin-3 + vatalanib", "C32": 87.4, "COLO 829": 45.6, "COLO 800": 80.1, "COLO 792": 54.1, "WM451Lu": 83.1, "WM3619": 69.1}